{"source": "the supplement of paper PMC11438910", "experiment_in_all_cases": "fluorescence intensity of antibody binding to polysaccharide-coupled beads; higher = stronger binding", "key": {"[1]": {"target": "pneumococcal polysaccharide Pn10A"}, "[2]": {"target": "pneumococcal polysaccharide Pn10B"}, "[3]": {"target": "pneumococcal polysaccharide Pn10C"}, "[4]": {"target": "pneumococcal polysaccharide Pn10F"}, "[5]": {"target": "pneumococcal polysaccharide Pn11A"}, "[6]": {"target": "pneumococcal polysaccharide Pn11B"}, "[7]": {"target": "pneumococcal polysaccharide Pn11C"}, "[8]": {"target": "pneumococcal polysaccharide Pn11D"}, "[9]": {"target": "pneumococcal polysaccharide Pn11F"}, "[10]": {"target": "pneumococcal polysaccharide Pn12A"}, "[11]": {"target": "pneumococcal polysaccharide Pn12B"}, "[12]": {"target": "pneumococcal polysaccharide Pn12F"}, "[13]": {"conditions": "antibody concentration 2337.65 ng/mL"}, "[14]": {"conditions": "antibody concentration 12500 ng/mL"}, "[15]": {"conditions": "antibody concentration 0.1 ng/mL"}, "[16]": {"conditions": "antibody concentration 0.534724 ng/mL"}, "[17]": {"conditions": "antibody concentration 2.8593 ng/mL"}, "[18]": {"conditions": "antibody concentration 15.2894 ng/mL"}, "[19]": {"conditions": "antibody concentration 81.7561 ng/mL"}, "[20]": {"conditions": "antibody concentration 437.17 ng/mL"}}, "note": "The other results are listed elsewhere or left out. Only a few entries rise above the background."}
{"binder": "3S41.4 (protein) chain 1: EVQLVESGGGLVQPGGSLRLSCATSGFTFSNYWMYWFRQAPGKGLEWVSTISGSSTNTYYSGSVKGRFTISRDNAKNTLYLQMNSLRAEDTAVYYCARRGTDSSHWYFDLWGPGTPITVSS chain 2: EIVMTQSPATLSLSPGERATLSCRASQSVSSNLAWYQQKPGQGPRLLIYDASNRATGIPDRFGGSGSGTDFTLTISSLEPEDVGVYYCQQESNWPLTFGGGTKVEIK", "values": [{"measurement": "fluorescence intensity", "setting": "[1]; [13]", "value": 26, "unit": "MFI"}, {"measurement": "fluorescence intensity", "setting": "[1]; [14]", "value": 39.5, "unit": "MFI"}, {"measurement": "fluorescence intensity", "setting": "[2]; [15]", "value": 23, "unit": "MFI"}, {"measurement": "fluorescence intensity", "setting": "[2]; [16]", "value": 25, "unit": "MFI"}, {"measurement": "fluorescence intensity", "setting": "[2]; [17]", "value": 25.8, "unit": "MFI"}, {"measurement": "fluorescence intensity", "setting": "[2]; [18]", "value": 23.5, "unit": "MFI"}, {"measurement": "fluorescence intensity", "setting": "[2]; [19]", "value": 21.5, "unit": "MFI"}, {"measurement": "fluorescence intensity", "setting": "[2]; [20]", "value": 24, "unit": "MFI"}, {"measurement": "fluorescence intensity", "setting": "[2]; [13]", "value": 25.8, "unit": "MFI"}, {"measurement": "fluorescence intensity", "setting": "[2]; [14]", "value": 33.5, "unit": "MFI"}, {"measurement": "fluorescence intensity", "setting": "[3]; [15]", "value": 14.5, "unit": "MFI"}, {"measurement": "fluorescence intensity", "setting": "[3]; [16]", "value": 16.5, "unit": "MFI"}, {"measurement": "fluorescence intensity", "setting": "[3]; [17]", "value": 16, "unit": "MFI"}, {"measurement": "fluorescence intensity", "setting": "[3]; [18]", "value": 15.2, "unit": "MFI"}, {"measurement": "fluorescence intensity", "setting": "[3]; [19]", "value": 17, "unit": "MFI"}, {"measurement": "fluorescence intensity", "setting": "[3]; [20]", "value": 16.8, "unit": "MFI"}, {"measurement": "fluorescence intensity", "setting": "[3]; [13]", "value": 18.5, "unit": "MFI"}, {"measurement": "fluorescence intensity", "setting": "[3]; [14]", "value": 27.5, "unit": "MFI"}, {"measurement": "fluorescence intensity", "setting": "[4]; [15]", "value": 21.5, "unit": "MFI"}, {"measurement": "fluorescence intensity", "setting": "[4]; [16]", "value": 18.5, "unit": "MFI"}, {"measurement": "fluorescence intensity", "setting": "[4]; [17]", "value": 18.8, "unit": "MFI"}, {"measurement": "fluorescence intensity", "setting": "[4]; [18]", "value": 20.2, "unit": "MFI"}, {"measurement": "fluorescence intensity", "setting": "[4]; [19]", "value": 19, "unit": "MFI"}, {"measurement": "fluorescence intensity", "setting": "[4]; [20]", "value": 19, "unit": "MFI"}, {"measurement": "fluorescence intensity", "setting": "[4]; [13]", "value": 21.2, "unit": "MFI"}, {"measurement": "fluorescence intensity", "setting": "[4]; [14]", "value": 30.5, "unit": "MFI"}, {"measurement": "fluorescence intensity", "setting": "[5]; [15]", "value": 27, "unit": "MFI"}, {"measurement": "fluorescence intensity", "setting": "[5]; [16]", "value": 27.5, "unit": "MFI"}, {"measurement": "fluorescence intensity", "setting": "[5]; [17]", "value": 29.5, "unit": "MFI"}, {"measurement": "fluorescence intensity", "setting": "[5]; [18]", "value": 29, "unit": "MFI"}, {"measurement": "fluorescence intensity", "setting": "[5]; [19]", "value": 26.2, "unit": "MFI"}, {"measurement": "fluorescence intensity", "setting": "[5]; [20]", "value": 29.5, "unit": "MFI"}, {"measurement": "fluorescence intensity", "setting": "[5]; [13]", "value": 36, "unit": "MFI"}, {"measurement": "fluorescence intensity", "setting": "[5]; [14]", "value": 51, "unit": "MFI"}, {"measurement": "fluorescence intensity", "setting": "[6]; [15]", "value": 24, "unit": "MFI"}, {"measurement": "fluorescence intensity", "setting": "[6]; [16]", "value": 26.2, "unit": "MFI"}, {"measurement": "fluorescence intensity", "setting": "[6]; [17]", "value": 23.5, "unit": "MFI"}, {"measurement": "fluorescence intensity", "setting": "[6]; [18]", "value": 26.2, "unit": "MFI"}, {"measurement": "fluorescence intensity", "setting": "[6]; [19]", "value": 25, "unit": "MFI"}, {"measurement": "fluorescence intensity", "setting": "[6]; [20]", "value": 27.5, "unit": "MFI"}, {"measurement": "fluorescence intensity", "setting": "[6]; [13]", "value": 31.2, "unit": "MFI"}, {"measurement": "fluorescence intensity", "setting": "[6]; [14]", "value": 41.8, "unit": "MFI"}, {"measurement": "fluorescence intensity", "setting": "[7]; [15]", "value": 23, "unit": "MFI"}, {"measurement": "fluorescence intensity", "setting": "[7]; [16]", "value": 22.5, "unit": "MFI"}, {"measurement": "fluorescence intensity", "setting": "[7]; [17]", "value": 21.2, "unit": "MFI"}, {"measurement": "fluorescence intensity", "setting": "[7]; [18]", "value": 20.5, "unit": "MFI"}, {"measurement": "fluorescence intensity", "setting": "[7]; [19]", "value": 20, "unit": "MFI"}, {"measurement": "fluorescence intensity", "setting": "[7]; [20]", "value": 24, "unit": "MFI"}, {"measurement": "fluorescence intensity", "setting": "[7]; [13]", "value": 40, "unit": "MFI"}, {"measurement": "fluorescence intensity", "setting": "[7]; [14]", "value": 140, "unit": "MFI"}, {"measurement": "fluorescence intensity", "setting": "[8]; [15]", "value": 21.5, "unit": "MFI"}, {"measurement": "fluorescence intensity", "setting": "[8]; [16]", "value": 22.5, "unit": "MFI"}, {"measurement": "fluorescence intensity", "setting": "[8]; [17]", "value": 22.5, "unit": "MFI"}, {"measurement": "fluorescence intensity", "setting": "[8]; [18]", "value": 23, "unit": "MFI"}, {"measurement": "fluorescence intensity", "setting": "[8]; [19]", "value": 23.5, "unit": "MFI"}, {"measurement": "fluorescence intensity", "setting": "[8]; [20]", "value": 24, "unit": "MFI"}, {"measurement": "fluorescence intensity", "setting": "[8]; [13]", "value": 29.5, "unit": "MFI"}, {"measurement": "fluorescence intensity", "setting": "[8]; [14]", "value": 78.2, "unit": "MFI"}, {"measurement": "fluorescence intensity", "setting": "[9]; [15]", "value": 11.5, "unit": "MFI"}, {"measurement": "fluorescence intensity", "setting": "[9]; [16]", "value": 13, "unit": "MFI"}, {"measurement": "fluorescence intensity", "setting": "[9]; [17]", "value": 16.2, "unit": "MFI"}, {"measurement": "fluorescence intensity", "setting": "[9]; [18]", "value": 14.5, "unit": "MFI"}, {"measurement": "fluorescence intensity", "setting": "[9]; [19]", "value": 15, "unit": "MFI"}, {"measurement": "fluorescence intensity", "setting": "[9]; [20]", "value": 17.2, "unit": "MFI"}, {"measurement": "fluorescence intensity", "setting": "[9]; [13]", "value": 18.8, "unit": "MFI"}, {"measurement": "fluorescence intensity", "setting": "[9]; [14]", "value": 26, "unit": "MFI"}, {"measurement": "fluorescence intensity", "setting": "[10]; [15]", "value": 14.5, "unit": "MFI"}, {"measurement": "fluorescence intensity", "setting": "[10]; [16]", "value": 13.5, "unit": "MFI"}, {"measurement": "fluorescence intensity", "setting": "[10]; [17]", "value": 14, "unit": "MFI"}, {"measurement": "fluorescence intensity", "setting": "[10]; [18]", "value": 14.5, "unit": "MFI"}, {"measurement": "fluorescence intensity", "setting": "[10]; [19]", "value": 15, "unit": "MFI"}, {"measurement": "fluorescence intensity", "setting": "[10]; [20]", "value": 16.2, "unit": "MFI"}, {"measurement": "fluorescence intensity", "setting": "[10]; [13]", "value": 22, "unit": "MFI"}, {"measurement": "fluorescence intensity", "setting": "[10]; [14]", "value": 44.8, "unit": "MFI"}, {"measurement": "fluorescence intensity", "setting": "[11]; [15]", "value": 16, "unit": "MFI"}, {"measurement": "fluorescence intensity", "setting": "[11]; [16]", "value": 15.5, "unit": "MFI"}, {"measurement": "fluorescence intensity", "setting": "[11]; [17]", "value": 14, "unit": "MFI"}, {"measurement": "fluorescence intensity", "setting": "[11]; [18]", "value": 14, "unit": "MFI"}, {"measurement": "fluorescence intensity", "setting": "[11]; [19]", "value": 15, "unit": "MFI"}, {"measurement": "fluorescence intensity", "setting": "[11]; [20]", "value": 18.8, "unit": "MFI"}, {"measurement": "fluorescence intensity", "setting": "[11]; [13]", "value": 21.5, "unit": "MFI"}, {"measurement": "fluorescence intensity", "setting": "[11]; [14]", "value": 48.2, "unit": "MFI"}, {"measurement": "fluorescence intensity", "setting": "[12]; [15]", "value": 17.8, "unit": "MFI"}, {"measurement": "fluorescence intensity", "setting": "[12]; [16]", "value": 18.8, "unit": "MFI"}, {"measurement": "fluorescence intensity", "setting": "[12]; [17]", "value": 16.8, "unit": "MFI"}, {"measurement": "fluorescence intensity", "setting": "[12]; [18]", "value": 18.5, "unit": "MFI"}, {"measurement": "fluorescence intensity", "setting": "[12]; [19]", "value": 17.8, "unit": "MFI"}, {"measurement": "fluorescence intensity", "setting": "[12]; [20]", "value": 20.2, "unit": "MFI"}, {"measurement": "fluorescence intensity", "setting": "[12]; [13]", "value": 21.5, "unit": "MFI"}, {"measurement": "fluorescence intensity", "setting": "[12]; [14]", "value": 44, "unit": "MFI"}]}
